Data reported in article PMC3189947.

B1: telethonin/Tcap (protein, UniProt O15273 1-167)
chain: MATSELSCEVSEENCERREAFWAEWKDLTLSTRPEEGCSLHEEDTQRHETYHQQGQCQVLVQRSPWLMMRMGILGRGLQEYQLPYQRVLPLPIFTPAKMGATKEEREDTPIQLQELLALETALGGQCVDRQEVAEITKQLPPVVPVSKPGALRRSLSRSMSQEAQRG

Legend:
[1] = target: T1, HNF4G, hepatocyte nuclear factor 4, gamma (His-tagged, TF array II) (UniProt Q14541); assay: peptide or protein array; TransSignal Transcription Factor Protein Array II (Panomics/Affymetrix), 46 His-tagged transcription factors spotted in duplicate, probed with purified GST-Ankrd2 (15 ug/ml), detected with anti-GST and HRP secondary antibody, chemiluminescence; both purified
T1 sequence: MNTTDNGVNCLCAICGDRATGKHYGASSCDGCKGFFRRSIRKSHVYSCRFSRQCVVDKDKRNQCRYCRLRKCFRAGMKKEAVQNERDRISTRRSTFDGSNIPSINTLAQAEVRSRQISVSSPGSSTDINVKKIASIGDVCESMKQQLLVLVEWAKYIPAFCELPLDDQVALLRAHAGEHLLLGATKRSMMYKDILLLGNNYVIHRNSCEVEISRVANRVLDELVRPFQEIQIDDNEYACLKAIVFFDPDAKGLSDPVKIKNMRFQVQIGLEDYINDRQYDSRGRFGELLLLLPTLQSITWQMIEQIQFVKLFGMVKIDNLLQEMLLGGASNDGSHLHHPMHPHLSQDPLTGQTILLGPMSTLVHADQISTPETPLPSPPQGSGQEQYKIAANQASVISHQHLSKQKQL

[2] = target: T2, Jun B, a proto-oncogene (His-tagged, TF array II) (UniProt P17275); assay: as above
T2 sequence: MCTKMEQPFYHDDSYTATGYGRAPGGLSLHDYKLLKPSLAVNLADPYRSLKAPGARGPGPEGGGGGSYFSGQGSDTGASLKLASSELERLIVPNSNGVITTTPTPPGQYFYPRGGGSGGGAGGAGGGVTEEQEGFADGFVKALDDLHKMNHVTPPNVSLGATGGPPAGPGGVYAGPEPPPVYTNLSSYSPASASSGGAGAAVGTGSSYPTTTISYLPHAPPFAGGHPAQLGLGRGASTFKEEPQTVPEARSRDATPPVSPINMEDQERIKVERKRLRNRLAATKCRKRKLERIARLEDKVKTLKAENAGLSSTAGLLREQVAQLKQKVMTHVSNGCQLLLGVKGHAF

[3] = target: T3, HEY, hairy/enhancer-of-split related with YRPW motif 1 (His-tagged, TF array II) (UniProt Q9Y5J3); assay: as above
T3 sequence: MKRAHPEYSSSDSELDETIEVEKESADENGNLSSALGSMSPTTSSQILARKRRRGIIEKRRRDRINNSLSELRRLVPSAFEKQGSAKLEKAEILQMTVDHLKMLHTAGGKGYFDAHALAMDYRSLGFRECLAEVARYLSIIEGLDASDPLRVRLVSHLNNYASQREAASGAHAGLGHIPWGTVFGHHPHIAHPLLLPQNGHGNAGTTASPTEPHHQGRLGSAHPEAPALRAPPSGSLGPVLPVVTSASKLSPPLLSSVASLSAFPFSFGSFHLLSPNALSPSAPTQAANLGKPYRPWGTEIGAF

[4] = target: T4, NFIL3, nuclear factor, interleukin 3 regulated (His-tagged, TF array II) (UniProt Q16649); assay: as above
T4 sequence: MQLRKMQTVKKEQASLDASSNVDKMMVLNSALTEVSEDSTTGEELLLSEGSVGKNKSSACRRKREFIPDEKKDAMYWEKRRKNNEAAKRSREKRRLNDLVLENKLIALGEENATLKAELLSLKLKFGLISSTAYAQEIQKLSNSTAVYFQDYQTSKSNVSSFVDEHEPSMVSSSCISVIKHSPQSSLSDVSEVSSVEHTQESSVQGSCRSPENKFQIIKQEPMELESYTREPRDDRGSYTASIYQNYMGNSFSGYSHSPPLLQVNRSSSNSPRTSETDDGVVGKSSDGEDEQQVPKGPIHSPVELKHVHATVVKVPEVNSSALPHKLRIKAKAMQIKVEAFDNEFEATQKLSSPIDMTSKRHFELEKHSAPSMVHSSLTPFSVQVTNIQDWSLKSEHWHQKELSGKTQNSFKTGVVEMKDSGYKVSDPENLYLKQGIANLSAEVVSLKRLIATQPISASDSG

[5] = target: T5, NR112, nuclear receptor subfam. 1 (His-tagged, TF array II) (UniProt O75469); assay: as above
T5 sequence: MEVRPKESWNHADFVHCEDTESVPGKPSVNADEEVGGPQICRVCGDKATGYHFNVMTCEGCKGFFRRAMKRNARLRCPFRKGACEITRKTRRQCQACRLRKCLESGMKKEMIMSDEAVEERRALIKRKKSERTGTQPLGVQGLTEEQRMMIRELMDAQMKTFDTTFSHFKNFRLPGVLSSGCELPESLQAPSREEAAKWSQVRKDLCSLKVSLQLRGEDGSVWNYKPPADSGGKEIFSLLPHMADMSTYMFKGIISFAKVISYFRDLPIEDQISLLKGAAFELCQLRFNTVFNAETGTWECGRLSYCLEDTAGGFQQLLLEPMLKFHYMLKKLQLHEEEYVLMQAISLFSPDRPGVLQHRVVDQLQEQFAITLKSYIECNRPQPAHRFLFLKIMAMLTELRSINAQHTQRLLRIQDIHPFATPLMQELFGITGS

[6] = target: T6, LHX2, LIM homeobox 2 (His-tagged, TF array II) (UniProt P50458); assay: as above
T6 sequence: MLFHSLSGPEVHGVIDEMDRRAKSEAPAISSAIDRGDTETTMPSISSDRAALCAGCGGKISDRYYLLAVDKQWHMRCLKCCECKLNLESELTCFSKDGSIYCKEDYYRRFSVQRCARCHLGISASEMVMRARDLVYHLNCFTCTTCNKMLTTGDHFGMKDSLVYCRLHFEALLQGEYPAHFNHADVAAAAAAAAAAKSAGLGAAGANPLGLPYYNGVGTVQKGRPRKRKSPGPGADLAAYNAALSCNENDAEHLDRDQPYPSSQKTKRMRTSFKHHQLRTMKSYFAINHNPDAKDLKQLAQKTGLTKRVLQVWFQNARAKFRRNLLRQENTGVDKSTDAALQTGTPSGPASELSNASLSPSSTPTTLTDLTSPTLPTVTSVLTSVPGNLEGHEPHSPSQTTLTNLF

GST-Ankrd2 NA (aa 5-284) = assay: pull-down; GST fusion proteins on glutathione-Sepharose beads incubated 2-12 h at 4 C with cell lysate in 50 mM HEPES pH 7.0, 250 mM NaCl, 0.1% NP-40, protease inhibitors; washed, SDS-PAGE, immunoblot; only the target purified
GST-Ankrd2 (A, aa 5-333) = assay: as above
[7] = target: GST-Ankrd2 CA (aa 121-333); assay: as above

Molecule	binding [1]	binding [2]	binding [3]	binding [4]	binding [5]	binding [6]	binding (GST-Ankrd2 NA (aa 5-284))	binding (GST-Ankrd2 (A, aa 5-333))	binding [7]
GST-Ankrd2 (A, aa 5-333)	binds weakly	binds	binds	binds	binds	binds			
B1							binds	binds	binds

No constants are given. Whether binding was seen depends on the method and setting. Binding can be weak; no strength is given. For part of these data: Tags and fused reporters may be left off the sequences shown. For part of these data: Binding seen in cells or lysates may run through a third protein.
